{
  "source": "PubChem BioAssay AID1347075",
  "about": "(National Center for Advancing Translational Sciences (NCATS), 2019)",
  "note": "Among all 400,000 compounds or so, about 5,500 (1.4%) were called active. Inconclusive results, whose numbers are uncertain, are shown with a selection of clear calls. The call rests on the fitted dose curve; in most records, active means well fitted cell-killing curve with a large enough effect; inconclusive means small, poorly fitted or top-dose-only effect, or effect the other way; inactive means flat fitted curve, though single readings scatter. Where the call is inconclusive, the potency comes from a doubtful curve fit. On the % scale 0 is the no-effect control and ±100 the full control effect; potency means the concentration at half of the fitted maximal effect.",
  "data": [
    {"assay": "qHTS assay for MDR1-selective chemotherapeutics: Primary screen using the parental adenocarcinoma cell KB-3-1; further: nearly all actives have a fitted effect of over 60% in size", "conditions": "KB-3-1 viability, CellTiter-Glo ATP luminescence, 72 h; activity change, negative = cytotoxic: at 46.1 µM (top of the series)", "summary_of_the_method": "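Here the drug-naive KB-3-1 line serves as comparator for MDR sub-line selectivity; cells received compound titrations, 72 h at 37 °C, then CellTiter-Glo readout.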", "values": [
      {"smiles": "O=C(c1ccc(S(=O)(=O)Nc2ccc(F)cc2)cc1)N1CCN(c2ccccn2)CC1", "Potency": "inactive"},
      {"smiles": "CC(=O)c1ccc(-c2cnc3c(NC=O)cc(-c4ccc(S(C)(=O)=O)cc4)cn23)cc1", "Potency": "inactive"},
      {"smiles": "O=C(Nc1nc(-c2cccs2)cs1)c1ccc(S(=O)(=O)N2CCCC2)cc1", "Potency": "active: 16.4 µM"},
      {"smiles": "CCOc1ccccc1NC(=O)CSc1nc2ccccc2nc1N1CCOCC1", "Potency": "inconclusive: 29.1 µM [cytotoxic, single point]"},
      {"smiles": "COc1ccc2c(CC(=O)OCC(=O)N(C)c3c(N)n(Cc4ccccc4)c(=O)[nH]c3=O)coc2c1", "Potency": "inactive"},
      {"smiles": "CN1CCN(c2ccc(NC(=O)c3sc4ccccc4c3Cl)cc2)CC1", "Potency": "inactive"},
      {"smiles": "CS(=O)c1nc(-c2ccc(Br)cc2)cc(-c2ccccc2)c1C#N", "note": "(stereo not given)", "Potency": "inconclusive: 29.1 µM [cytotoxic, single point]"},
      {"smiles": "Cc1ccc(Sc2ccc(N3CCC(C(=O)Nc4cc(C)cc(C)c4)CC3)nn2)cc1", "Potency": "inactive"},
      {"smiles": "CC(=O)Nc1ccc(-c2ccnc3c2CC(C(=O)Nc2cccnc2)O3)cc1", "note": "(stereo not given)", "Potency": "inconclusive: 29.1 µM [cytotoxic, single point]"},
      {"smiles": "Cc1ccc2c(c1)CCCN2CC(=O)Nc1cc(S(=O)(=O)N2CCCC2)ccc1Cl", "Potency": "inconclusive: 20.6 µM [cytotoxic, partial curve]"},
      {"smiles": "OC(CSc1ccccc1Cl)CN1CCN(c2ccccc2F)CC1", "note": "(stereo not given)", "Potency": "inconclusive: 20.6 µM [cytotoxic, single point]"},
      {"smiles": "O=C(Nc1ccc(Cl)cc1)c1cnn2c1NC(c1ccccc1)=CC2c1ccccc1", "note": "(stereo not given)", "Potency": "inconclusive: 18.4 µM [cytotoxic, single point]"},
      {"smiles": "COc1cccc(C(=O)NNC(=O)c2ccc3ccccc3c2O)c1", "Potency": "inconclusive: 18.4 µM [cytotoxic, single point]"},
      {"smiles": "Oc1c(N=NC(=S)Nc2ccccc2F)c2ccccc2n1Cc1ccc(Cl)cc1", "activity change, negative = cytotoxic": "inconclusive: -82.4%"},
      {"smiles": "NNc1ccc([N+](=O)[O-])c2[nH][nH]c(=O)c12", "Potency": "inconclusive: 7.31 µM [cytotoxic, partial curve, poor fit]"},
      {"smiles": "CCN(CC)c1cc(C)c2cc(NC(=O)c3ccc(OC)c(OC)c3)ccc2n1", "Potency": "active: 16.4 µM"},
      {"smiles": "COc1ccc(-c2cc(C)no2)cc1S(=O)(=O)N1CCN(c2cccc(C)c2)C(C)C1", "note": "(stereo not given)", "Potency": "active: 11.6 µM"},
      {"smiles": "CC1CCN(C(=O)Cn2c(=O)n(Cc3ccc4c(c3)OCO4)c(=O)c3ccccc32)CC1", "Potency": "inactive"},
      {"smiles": "CC1=C(C(=O)OCc2ccccc2)C(c2cccc3ccccc23)NC(=O)N1CCCC(=O)O", "note": "(stereo not given)", "Potency": "inconclusive: 0.0651 µM [rising, full curve]"},
      {"smiles": "COc1ccccc1OCCNC(=O)c1ccc(C(C)(C)C)cc1", "Potency": "inactive"},
      {"smiles": "Clc1ccccc1Sc1ccc(-c2ccccn2)s1", "Potency": "inconclusive: 0.461 µM [cytotoxic, full curve, poor fit]"},
      {"smiles": "Cc1cc(OCC(O)CN2CCN(c3ccccn3)CC2)cc(C)c1Cl", "note": "(stereo not given)", "Potency": "inactive"},
      {"smiles": "Cc1cc(NC(=O)c2cncc(Br)c2)ccc1NC(=O)c1cc2ccccc2o1", "Potency": "inconclusive: 29.1 µM [cytotoxic, single point]"},
      {"smiles": "CCN(Cc1ccncc1)S(=O)(=O)c1ccc(C(C)=O)cc1", "Potency": "inconclusive: 9.2 µM [cytotoxic, partial curve, poor fit]"},
      {"smiles": "CCN1CCN(c2cc(C)c3cc(NC(=O)c4cccc(OC)c4)ccc3n2)CC1", "Potency": "inconclusive: 20.6 µM [cytotoxic, single point]"},
      {"smiles": "Clc1nc2ccccc2cc1/C=N/Nc1nc2ccccc2[nH]1", "Potency": "inactive"},
      {"smiles": "CCc1oc(C(=O)OC)cc1CSC(=N)N", "Potency": "inconclusive: 18.4 µM [cytotoxic, single point]"},
      {"smiles": "O=C(COc1ccccc1)Nc1cc(C(F)(F)F)ccc1N1CCCC1", "Potency": "inconclusive: 23.1 µM [cytotoxic, single point]"},
      {"smiles": "CC(=O)N(C)N1c2ccccc2CCc2ccccc21", "Potency": "inactive"},
      {"smiles": "Fc1cccc(F)c1[B-](F)(F)F", "Potency": "inactive"},
      {"smiles": "CCN(CC)c1ccc(NC(=O)c2c(C)nn(-c3ccc(F)cc3)c2-n2cccc2)c(C)c1", "Potency": "inconclusive: 25.9 µM [cytotoxic, single point]"},
      {"smiles": "Cn1cnc(Sc2ncnc3nc[nH]c23)c1[N+](=O)[O-]", "Potency": "inconclusive: 1.64 µM [cytotoxic, full curve, poor fit]"},
      {"smiles": "O=S(=O)(C/C(=C/CO)S(=O)(=O)c1ccccc1)c1ccccc1", "Potency": "inconclusive: 18.4 µM [cytotoxic, single point]"},
      {"smiles": "c1cc2[nH]snc2c2nc(C3CC3)nc12", "Potency": "inconclusive: 16.4 µM [cytotoxic, single point]"},
      {"smiles": "O=C(NC1CCN(Cc2ccccc2)CC1)c1cccc(S(=O)(=O)Nc2ccc(F)cc2)c1", "Potency": "inconclusive: 7.31 µM [cytotoxic, partial curve]"},
      {"smiles": "CCCCNS(=O)(=O)c1ccc2nc(SCC(=O)Nc3cccc(F)c3)[nH]c2c1", "Potency": "inconclusive: 16.4 µM [cytotoxic, partial curve]"},
      {"smiles": "O=C(Nc1cccc(Cl)c1)Nc1ccc(Br)cc1F", "Potency": "active: 16.4 µM"},
      {"smiles": "COc1ccc(-c2nnc(SC)nc2-c2ccc(OC)c([N+](=O)[O-])c2)cc1[N+](=O)[O-]", "Potency": "inconclusive: 14.6 µM [cytotoxic, single point]"},
      {"smiles": "CCOC(=O)c1c(NC(=O)CCS(=O)(=O)c2ccccc2)sc2c1CC(C)(C)NC2(C)C", "Potency": "inactive"},
      {"smiles": "COC(CNC(=O)c1cn(C)c2ccc(S(=O)(=O)N(C)C3CCCCC3)cc2c1=O)OC", "Potency": "inactive"},
      {"smiles": "CC(NS(=O)(=O)c1ccc(Br)cc1)C(N)=O", "note": "(stereo not given)", "Potency": "inconclusive: 29.1 µM [cytotoxic, single point]"},
      {"smiles": "COc1cccc(C(=O)NCCSc2c(C)[nH]c3ccccc23)c1OC", "Potency": "inconclusive: 16.4 µM [cytotoxic, single point]"},
      {"smiles": "CCOC(=O)C1=C(C)Nc2ccccc2N=C1NC(=O)C1CCN(C(=O)c2ccccc2C)CC1", "Potency": "inconclusive: 1.16 µM [cytotoxic, full curve]"},
      {"smiles": "CN1CCN(c2ccccc2NC(=O)c2ccc(-c3ccccc3)cc2)CC1", "Potency": "inconclusive: 29.1 µM [cytotoxic, single point]"},
      {"smiles": "COc1ccc(C[C@H]2CN3C(=NC[C@@H]3C(C)C)N2C[C@H](C)NC(=O)c2ccc(C)c(Br)c2)cc1", "Potency": "inconclusive: 29.1 µM [cytotoxic, single point]"}
    ]}
  ]
}
